Data source: PubChem BioAssay AID1259308 (NCATS, 2017)
Here is a random part of about 59,000 reagents. About 1,510 of them (2.6%) count as active. 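Calls use total luciferase alone and ignore viability, so some active siRNAs may act by altering cell number.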 Reagents against one gene are numbered here.

Test: 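Genes whose loss raises luciferase production in HEK293 cells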 (primary screen)
Cell system: human HEK293 embryonic kidney cells stably expressing firefly luciferase (HEK-CMV-Luc2-Hygro)
Reagents: single siRNA against human genes, 0.8 pmol siRNA per well
Time to read-out: 72 h
Detection: 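Luciferase light (ONE-Glo) measured on one replicate plate set and viability (CellTiter-Glo) on the other, scaled to a negative control siRNA, with robust z-scores and luciferase per cell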
Scale: total luciferase, z-score and total luciferase, % of control: higher = more reporter protein produced; luciferase per cell, z-score: higher = more reporter output per viable cell; viable cells, % of control: higher = more viable cells
Rule for the call: 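An siRNA counts as active if its total luciferase robust z-score exceeds 3; genes with two or more such siRNAs out of three were retested with fresh siRNAs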
Calls: active = raised luciferase; inactive = no rise

| gene symbol | siRNA no. | total luciferase, z-score | total luciferase, % of control | luciferase per cell, z-score | viable cells, % of control | Outcome |
| --- | --- | --- | --- | --- | --- | --- |
| LIG3 (DNA ligase 3) | 1 | 1.12 | 104 | 2.14 | 66.2 | inactive |
| LIG3 (DNA ligase 3) | 2 | -0.0827 | 80.2 | -0.335 | 97.9 | inactive |
| LIG3 (DNA ligase 3) | 3 | -0.748 | 67 | -0.51 | 85.6 | inactive |
| MUC3B (mucin 3B, cell surface associated) | 1 | 1.84 | 118 | 1.75 | 83.5 | inactive |
| MUC3B (mucin 3B, cell surface associated) | 2 | -1.14 | 59.2 | -0.903 | 83.9 | inactive |
| MUC3B (mucin 3B, cell surface associated) | 3 | 0.31 | 88.1 | -0.166 | 103 | inactive |
| MUC3B (mucin 3B, cell surface associated) | 4 | -1.08 | 60.4 | -0.594 | 78.9 | inactive |
| MUC3B (mucin 3B, cell surface associated) | 5 | -0.94 | 63.2 | 0.838 | 56.6 | inactive |
| MUC3B (mucin 3B, cell surface associated) | 6 | 1.51 | 112 | 1.34 | 87.9 | inactive |
| NKTR (natural killer cell triggering receptor) | 1 | -0.255 | 76.8 | -0.439 | 96.4 | inactive |
| NKTR (natural killer cell triggering receptor) | 2 | 0.223 | 86.3 | 0.94 | 75.3 | inactive |
| NKTR (natural killer cell triggering receptor) | 3 | -0.878 | 64.4 | -0.0503 | 72.9 | inactive |
| LINC00619 (long independently transcribed non-coding RNA 619) | 1 | -1.03 | 61.5 | -0.3 | 74.3 | inactive |
| LINC00619 (long independently transcribed non-coding RNA 619) | 2 | -0.168 | 78.5 | -0.0814 | 89.7 | inactive |
| LINC00619 (long independently transcribed non-coding RNA 619) | 3 | -1.01 | 61.9 | -0.808 | 85.5 | inactive |
| VIT (vitrin) | 1 | -0.0275 | 81.3 | -0.554 | 105 | inactive |
| VIT (vitrin) | 2 | -0.0665 | 80.6 | -0.428 | 101 | inactive |
| VIT (vitrin) | 3 | -0.701 | 68 | 1.05 | 57.5 | inactive |
| DYRK1B | 1 | -0.471 | 72.5 | 0.0377 | 80.2 | inactive |
| DYRK1B | 2 | 0.923 | 100 | 0.659 | 94.2 | inactive |
| DYRK1B | 3 | -0.0302 | 81.3 | -0.265 | 97.4 | inactive |
| USP27X (ubiquitin specific peptidase 27 X-linked) | 1 | -1.87 | 44.7 | -2.48 | 96 | inactive |
| USP27X (ubiquitin specific peptidase 27 X-linked) | 2 | -0.81 | 65.8 | -0.455 | 82.8 | inactive |
| USP27X (ubiquitin specific peptidase 27 X-linked) | 3 | 0.602 | 93.9 | -0.314 | 114 | inactive |
| LINC01011 (long independently transcribed non-coding RNA 1011) | 1 | 2.93 | 140 | 3 | 71.1 | inactive |
| LINC01011 (long independently transcribed non-coding RNA 1011) | 2 | 0.141 | 84.7 | 0.593 | 81 | inactive |
| LINC01011 (long independently transcribed non-coding RNA 1011) | 3 | -1.29 | 56.3 | -0.927 | 80.3 | inactive |
| ZCWPW1 (zinc finger CW-type and PWWP domain containing 1) | 1 | -0.191 | 78.1 | -0.267 | 93.6 | inactive |
| ZCWPW1 (zinc finger CW-type and PWWP domain containing 1) | 2 | 0.258 | 87 | -0.072 | 99.1 | inactive |
| ZCWPW1 (zinc finger CW-type and PWWP domain containing 1) | 3 | -0.242 | 77.1 | -0.401 | 95.7 | inactive |
| BRWD3 (bromodomain and WD repeat domain containing 3) | 1 | -1.78 | 46.4 | -0.059 | 52.6 | inactive |
| BRWD3 (bromodomain and WD repeat domain containing 3) | 2 | -0.848 | 65 | -0.397 | 80.7 | inactive |
| BRWD3 (bromodomain and WD repeat domain containing 3) | 3 | 0.799 | 97.8 | 1 | 83.9 | inactive |
| RP1 (RP1 axonemal microtubule associated) | 1 | -1.41 | 53.9 | -0.499 | 68.6 | inactive |
| RP1 (RP1 axonemal microtubule associated) | 2 | 0.32 | 88.2 | -0.302 | 107 | inactive |
| RP1 (RP1 axonemal microtubule associated) | 3 | -0.993 | 62.1 | -0.771 | 85.1 | inactive |

In a second layout: 3 of the entries above.
gene symbol,siRNA no.,"total luciferase, z-score","total luciferase, % of control","luciferase per cell, z-score","viable cells, % of control",Outcome
RP1 (RP1 axonemal microtubule associated),1,-1.41,53.9,-0.499,68.6,inactive
RP1 (RP1 axonemal microtubule associated),2,0.32,88.2,-0.302,107,inactive
RP1 (RP1 axonemal microtubule associated),3,-0.993,62.1,-0.771,85.1,inactive

The listing continues:
| gene symbol | siRNA no. | total luciferase, z-score | total luciferase, % of control | luciferase per cell, z-score | viable cells, % of control | Outcome |
| --- | --- | --- | --- | --- | --- | --- |
| ARHGAP19 (Rho GTPase activating protein 19) | 1 | -1.32 | 55.5 | -1.31 | 87.7 | inactive |
| ARHGAP19 (Rho GTPase activating protein 19) | 2 | -0.75 | 67 | -0.862 | 93.9 | inactive |
| ARHGAP19 (Rho GTPase activating protein 19) | 3 | 0.00771 | 82 | -0.268 | 98.4 | inactive |
| ASAP3 (ArfGAP with SH3 domain, ankyrin repeat and PH domain 3) | 1 | -0.0146 | 81.6 | 0.886 | 72.2 | inactive |
| ASAP3 (ArfGAP with SH3 domain, ankyrin repeat and PH domain 3) | 2 | 0.565 | 93.1 | 0.644 | 87.8 | inactive |
| ASAP3 (ArfGAP with SH3 domain, ankyrin repeat and PH domain 3) | 3 | 0.243 | 86.7 | -0.201 | 102 | inactive |
| TPST2 (tyrosylprotein sulfotransferase 2) | 1 | 0.823 | 98.2 | 0.0652 | 108 | inactive |
| TPST2 (tyrosylprotein sulfotransferase 2) | 2 | -0.663 | 68.7 | -0.705 | 92.4 | inactive |
| TPST2 (tyrosylprotein sulfotransferase 2) | 3 | 0.328 | 88.4 | 0.313 | 91 | inactive |
| SLC9A4 | 1 | 1.21 | 106 | 0.846 | 94.7 | inactive |
| SLC9A4 | 2 | -1.09 | 60.2 | -1.73 | 106 | inactive |
| SLC9A4 | 3 | -0.435 | 73.2 | -0.978 | 106 | inactive |
| LDB2 (LIM domain binding 2) | 1 | 0.152 | 84.9 | -0.223 | 101 | inactive |
| LDB2 (LIM domain binding 2) | 2 | -0.801 | 65.9 | -0.572 | 85.7 | inactive |
| LDB2 (LIM domain binding 2) | 3 | 0.363 | 89.1 | 0.874 | 79.1 | inactive |
| GPC4 (glypican 4) | 1 | -0.0514 | 80.9 | 1.34 | 63.5 | inactive |
| GPC4 (glypican 4) | 2 | 1.98 | 121 | 2.61 | 68.2 | inactive |
| GPC4 (glypican 4) | 3 | 2.75 | 137 | 1.97 | 90.8 | inactive |
| NANOS2 (nanos C2HC-type zinc finger 2) | 1 | 0.666 | 95.1 | -0.412 | 118 | inactive |
| NANOS2 (nanos C2HC-type zinc finger 2) | 2 | 0.545 | 92.7 | 0.275 | 96.4 | inactive |
| NANOS2 (nanos C2HC-type zinc finger 2) | 3 | 1.03 | 102 | 1.64 | 74.2 | inactive |
